Source: paper PMC7555659
These are yes or no findings as the source states them, for the method shown. Binding seen in cells or lysates may run through a third protein. Binding can be weak; no strength is given.

Biological target: AKT (also known as protein kinase B) (mouse (endogenous in hippocampus))
Assay: co-IP; whole hippocampus of P2X7R KO mice 7 days after KA, lysed in RIPA buffer; AKT antibody and protein G Sepharose overnight at 4 °C; Western blot; mice infused with control siRNA or HSP25 siRNA

B1: pleckstrin homology domain and leucine-rich repeat protein phosphatase 2 (protein, UniProt Q8BXA7 1-1320)
chain: MKHNGSRTCLNRRSRFGSRERDWLREDVKRGCVYLYGADTTTATTTTSSSSSSSSSSDLHLVLCTVETPASEICAGEGRESLYLQLHGDLVRRLEPSERPLQIVYDYLSRLGFEDPVRIQEEATNPDLSCMIRFYGEKPCQMDHLDRILLSGIYNVRKGKTQLHKWAERLVVLCGTCLIVSSVKDCQTGKMHILPLVGGKIEEVKRRQHSLAFSSAGAQAQTYHVSFETLAEYQRWQRQASKVVSQRMSTVDLSCYSLEEVPEHLFYSQDITYLNLRHNFMQLERPGGLDTLHKFSQLKGLNLSHNKLGLFPVLLCEISTLTELSLSCNGFHDLPSQIGKLLNLQTLSLDGNGLTALPDELGNLRQLTSLGISFNDFRHIPEVLEKLTMLDKVAMAGNRLEVLNLGALTRMSQVKHVDLRMNHLKTVITENMEGNKHITHMDLRDNQLTDLDLSSLCSLEQLHCERNQLRELTLSGFSLRTLYASWNRLTAVNVYPVPSLLTSLELSQNLLECVPDWACEAKKLEILDISHNLLTEVPMRILSSLSLRKLMVGHNHIHVLPALVEHIPLEVLDIQHNTLSRLPDTLFSKALNLRYLNASANSLESLPSACAGEESLSVLQLLYLTSNLLTDQCIPVLVGHPHLRVLHLANNQLQTFPASKLNKLEQLEELNLSGNKLTAIPTTIANCKRLHTLVAHANNISIFPEILQLPQIQFVDLSCNDLTEILIPEALPATLQDLDLTGNTNLVLEHKTLDMFSHITALKIDQKPLPATDSAVTSTFWSHGLAEMAGQRNKLCVSALAMDNFAEGVGAVYGMFDGDRNEELPRLLQCTMADVLLEEVQHSTNDTVFMTNTFLVSHRKLGMAGQKLGSSALLCYIRPDTADPTSSFSLTVANVGMCQAVLCRGGKPVPLSKVFSLEHDPEEAQRVKDQKAIITEDNKVNGVTCCTRLLGCTYLYPWILPKPHIASTPLTIQDELLILGNKALWEHLSYLEAVNAVRHVQDPLAAAKKLCTLAQSYGCQDNVGAMVVYLNIGEEGCTCEMNGLTLPGPVGFASTAALKDTPKPTTPSSSSGIASEFSSEMSTSEVSSEVGSTASDEHNTVGLEASLLPRPERRCSLHPASSAGVFQRQPSCATFSSNQSDNGLDSDDDQPVEGVITNGSRVEVEVDIHCCRGREPESSPPLPKNSSNACSEERARGAGFGIRRQNSVNSGILLPANRDKMELQKSPSTSCLYGKKLSNGSIVPLEDSLNLIEVATEAPKRKTGYFAAPTQLEPEDQFVVPRDLEEEVKEQMKQHQEGRPEPEPRGEERTEPLEEFDTAL
- binding: binds
